Laboratory results from patent US5993803A, “Method of reducing the severity of host vs graft reaction by down-regulating hsp60 autoimmunity” (Yeda Research and Development Co., Ltd., priority 1996, dated 1999).
“Also recorded” adds a separate entry of the source. Part of at least one peptide drawing is inferred or uncertain, most often the ends. Where no end group is shown, it is not given here.

Assays:
[1] = system: BALB/c (H-2^d) skin allograft rejection in wild-type NOD (H-2^g7) mice; type: in vivo, mouse; conditions: wild-type NOD recipients; peptides in incomplete Freund's adjuvant; FIG. 4
[2] = system: spleen cells of treated NOD or C57BL mice stimulated with irradiated BALB/c spleen cells; experiment: Mixed lymphocyte reaction (MLR) of spleen cells from treated, grafted mice with irradiated BALB/c spleen cells; type: cell-based, mouse; conditions: spleen cells taken 20 days after BALB/c skin grafting; hsp60 and p12 treated mice reported together
Text: T cells reactive to hsp60 and other hsp molecules have been isolated from cardiac allografts (Moliterno et al., 1995) as well as from other inflammatory lesions (Selmaj et al., 1991; Mor et al., 1992). […] It is theorized that the constitutive hyper-expression of hsp60 in the donor Eα-hsp60 skin amplifies the activation of anti-hsp60 autoimmune T cells at the site and enhance the local immune response by adding pro-inflammatory (TH1-type) cytokines, such as INFγ (Finkelman et al., 1990), to the allograft reaction, thereby inciting and abetting other T cells responsive to the foreign antigens. Conversely, hsp60 autoimmune T cells that have been activated to produce anti-inflammatory cytokines of the TH2-type, such as IL-10, should serve to shut down the effector immune reaction by a form of by-stander suppression (Weiner et al., 1994). To test whether treatment with hsp60 peptides might modify the cytokine response, NOD or C57BL mice were treated with hsp60 or with hsp60 peptide p12. Control mice were untreated or were treated with saline emulsified in IFA. The mice were grafted with BALB/c skin grafts and twenty days later, just at the beginning of graft rejection in the control mice, groups of 5-10 mice were sacrificed and their spleen cells assayed individually in a standard mixed lymphocyte reaction (MLR) with irradiated BALB/c spleen cells as stimulators (Lohse et al., 1990). […]

| Sequence | survival of allogeneic BALB/c skin after vaccination with hsp60 peptides [1] | T-cell proliferation by thymidine incorporation in MLR, treated vs control groups [2] |
| --- | --- | --- |
| EEIAQVATISANGDKDIGNI [p12] | effective; also recorded: significant | no significant differences |
| VIAELKKQSKPVTTPEEIAQ [p11, reference compound] | did not prolong survival | – |
